Experiment [1] concerns the target T1, WRKY20 (BiFC fusion used with MPK3 or MPK6) (Arabidopsis thaliana) (UniProt Q93WV0).
T1 sequence: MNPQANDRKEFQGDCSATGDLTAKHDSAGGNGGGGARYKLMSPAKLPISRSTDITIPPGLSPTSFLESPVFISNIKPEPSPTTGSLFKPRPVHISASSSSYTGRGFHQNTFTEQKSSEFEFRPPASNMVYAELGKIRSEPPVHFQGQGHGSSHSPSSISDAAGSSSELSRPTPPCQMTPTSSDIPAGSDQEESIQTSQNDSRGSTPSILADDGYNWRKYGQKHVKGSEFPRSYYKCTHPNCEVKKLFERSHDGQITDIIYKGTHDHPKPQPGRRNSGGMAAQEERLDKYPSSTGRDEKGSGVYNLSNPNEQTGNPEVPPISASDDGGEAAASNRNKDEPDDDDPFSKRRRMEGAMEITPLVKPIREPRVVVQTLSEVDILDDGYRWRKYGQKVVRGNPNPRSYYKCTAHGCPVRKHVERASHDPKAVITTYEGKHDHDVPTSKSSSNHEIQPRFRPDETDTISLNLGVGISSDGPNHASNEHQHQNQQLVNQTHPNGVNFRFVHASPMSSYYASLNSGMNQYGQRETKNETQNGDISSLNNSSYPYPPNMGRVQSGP
Kind of experiment: split reporter.

Chains of the proteins cited; added tags and fusions are not shown.
UniProt Q39026: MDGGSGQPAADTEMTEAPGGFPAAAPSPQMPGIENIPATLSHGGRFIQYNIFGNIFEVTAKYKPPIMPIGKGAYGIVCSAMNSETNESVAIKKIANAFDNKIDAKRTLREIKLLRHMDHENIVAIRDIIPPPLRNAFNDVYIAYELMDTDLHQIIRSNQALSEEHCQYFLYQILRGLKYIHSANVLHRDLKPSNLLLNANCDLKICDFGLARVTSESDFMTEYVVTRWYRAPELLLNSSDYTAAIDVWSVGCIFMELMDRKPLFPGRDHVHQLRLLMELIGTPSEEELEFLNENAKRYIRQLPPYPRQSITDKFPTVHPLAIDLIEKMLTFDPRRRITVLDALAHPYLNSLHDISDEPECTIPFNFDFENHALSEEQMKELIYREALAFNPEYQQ

For experiment [2], the target named is T1, WRKY20 (BiFC fusion used with MPK3 or MPK6) (Arabidopsis thaliana). Kind of experiment: split reporter. This is another data set of the same source.
Experiment [3] concerns the target T2, BD-WRKY20 (Arabidopsis thaliana) (UniProt Q93WV0).
T2 sequence: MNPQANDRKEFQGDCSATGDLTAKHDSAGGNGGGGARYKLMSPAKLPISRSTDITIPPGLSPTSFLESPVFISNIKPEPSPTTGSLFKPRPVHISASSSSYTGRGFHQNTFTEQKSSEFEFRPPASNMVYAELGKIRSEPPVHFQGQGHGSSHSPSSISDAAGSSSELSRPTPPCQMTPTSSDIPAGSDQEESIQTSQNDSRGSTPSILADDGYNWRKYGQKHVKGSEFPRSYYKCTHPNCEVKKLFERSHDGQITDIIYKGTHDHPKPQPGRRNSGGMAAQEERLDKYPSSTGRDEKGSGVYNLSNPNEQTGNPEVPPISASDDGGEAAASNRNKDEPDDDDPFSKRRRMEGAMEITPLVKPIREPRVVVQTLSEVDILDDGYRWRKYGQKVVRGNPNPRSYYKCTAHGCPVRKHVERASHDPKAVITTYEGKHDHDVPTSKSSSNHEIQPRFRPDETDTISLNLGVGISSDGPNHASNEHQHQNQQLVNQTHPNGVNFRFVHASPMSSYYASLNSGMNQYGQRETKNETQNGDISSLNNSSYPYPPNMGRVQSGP
Kind of experiment: two-hybrid.

Where two headings read alike, the source gives them in different places. These are yes or no findings as the source states them, for the method shown. For part of these data: Binding seen in cells or lysates may run through a third protein. Some binding calls cover weakened binding; strength is not graded here. Sequences can lack the tags named with a protein.

“MPK6 (BiFC fusion used with WRKY20) (from UniProt Q39026 1-395) (enzyme)”: the binding result in experiment [1] and in experiment [2] was “binds” in each case.

As to “AD-MPK6 (from UniProt Q39026 1-395) (enzyme)”, the binding result in experiment [3] is listed as “binds”.

B1: AD-MPK3 (enzyme, UniProt Q39023 1-370)
chain: MNTGGGQYTDFPAVETHGGQFISYDIFGSLFEITSKYRPPIIPIGRGAYGIVCSVLDTETNELVAMKKIANAFDNHMDAKRTLREIKLLRHLDHENIIAIRDVVPPPLRRQFSDVYISTELMDTDLHQIIRSNQSLSEEHCQYFLYQLLRGLKYIHSANIIHRDLKPSNLLLNANCDLKICDFGLARPTSENDFMTEYVVTRWYRAPELLLNSSDYTAAIDVWSVGCIFMELMNRKPLFPGKDHVHQMRLLTELLGTPTESDLGFTHNEDAKRYIRQLPNFPRQPLAKLFSHVNPMAIDLVDRMLTFDPNRRITVEQALNHQYLAKLHDPNDEPICQKPFSFEFEQQPLDEEQIKEMIYQEAIALNPTYG
As to B1, the binding entry in experiment [3] was “binds”.

B2: MPK3 (BiFC fusion used with WRKY20) (enzyme, UniProt Q39023 1-370)
chain: MNTGGGQYTDFPAVETHGGQFISYDIFGSLFEITSKYRPPIIPIGRGAYGIVCSVLDTETNELVAMKKIANAFDNHMDAKRTLREIKLLRHLDHENIIAIRDVVPPPLRRQFSDVYISTELMDTDLHQIIRSNQSLSEEHCQYFLYQLLRGLKYIHSANIIHRDLKPSNLLLNANCDLKICDFGLARPTSENDFMTEYVVTRWYRAPELLLNSSDYTAAIDVWSVGCIFMELMNRKPLFPGKDHVHQMRLLTELLGTPTESDLGFTHNEDAKRYIRQLPNFPRQPLAKLFSHVNPMAIDLVDRMLTFDPNRRITVEQALNHQYLAKLHDPNDEPICQKPFSFEFEQQPLDEEQIKEMIYQEAIALNPTYG
Consider B2, for which the binding result in experiment [1] and in experiment [2] was “binds” in each case.

The values are drawn from article doi:10.1101/2020.06.17.158212.
